# The inconclusive results got no clear call from the source; some entries with a clear call stand among them for comparison. A potency beside an inconclusive call is a rough fit, not a confirmed value. The source made the active and inactive calls. Calls follow the shape of the dose curve; as a rule, active = well fitted inhibition curve with a large enough effect; inconclusive = small, poorly fitted or top-dose-only effect; inactive = no such curve, though single readings can be large or run the other way.
# Amino acid sequences for entries named in this document (tags omitted). A change or cut given only in a name is not applied to a line headed by its entry.
# UniProt Q8WZA2: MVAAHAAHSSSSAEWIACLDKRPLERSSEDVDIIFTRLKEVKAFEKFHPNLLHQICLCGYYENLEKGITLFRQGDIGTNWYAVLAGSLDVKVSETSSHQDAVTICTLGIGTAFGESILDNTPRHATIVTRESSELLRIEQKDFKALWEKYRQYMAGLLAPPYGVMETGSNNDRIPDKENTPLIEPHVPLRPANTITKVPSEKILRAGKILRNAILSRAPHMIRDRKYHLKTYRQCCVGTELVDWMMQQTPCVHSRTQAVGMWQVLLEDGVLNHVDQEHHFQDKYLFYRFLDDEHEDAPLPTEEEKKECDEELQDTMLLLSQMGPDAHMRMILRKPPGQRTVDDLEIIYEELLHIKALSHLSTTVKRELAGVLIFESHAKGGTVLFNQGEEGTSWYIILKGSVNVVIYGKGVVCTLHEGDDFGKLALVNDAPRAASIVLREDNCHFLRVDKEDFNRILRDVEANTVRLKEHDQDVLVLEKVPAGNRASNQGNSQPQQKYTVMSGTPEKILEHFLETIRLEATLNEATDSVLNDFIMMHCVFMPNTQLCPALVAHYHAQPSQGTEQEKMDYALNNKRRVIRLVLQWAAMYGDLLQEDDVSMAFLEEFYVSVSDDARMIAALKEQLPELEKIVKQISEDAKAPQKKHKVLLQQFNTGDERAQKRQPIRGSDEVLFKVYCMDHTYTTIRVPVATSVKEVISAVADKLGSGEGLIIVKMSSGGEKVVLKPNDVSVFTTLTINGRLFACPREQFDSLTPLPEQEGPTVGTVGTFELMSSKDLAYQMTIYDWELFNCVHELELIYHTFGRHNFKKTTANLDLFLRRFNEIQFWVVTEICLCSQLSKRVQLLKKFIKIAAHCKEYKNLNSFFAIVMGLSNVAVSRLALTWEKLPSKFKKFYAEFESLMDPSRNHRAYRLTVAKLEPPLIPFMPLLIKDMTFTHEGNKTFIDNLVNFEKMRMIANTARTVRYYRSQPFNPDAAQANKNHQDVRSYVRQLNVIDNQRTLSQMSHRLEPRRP
# Target: Rap guanine nucleotide exchange factor 4 (Homo sapiens) (UniProt Q8WZA2)
# Assay: Confirmatory qHTS for antagonist of cAMP-regulated guanine nucleotide exchange factor 4 (EPAC2) (AID 1645885); also: nearly all actives have a fitted effect of over 25% in size
# Details: EPAC2 Rap1B-BODIPY-GDP exchange fluorescence, biochemical; activity change, negative = inhibition: at 12.7 µM (top of the series) unless noted; series mostly up to 114 µM
# % is scaled to controls: 0 for no effect and ±100 for the full control effect; potency is read from the fitted curve at half-maximal effect.
SMILES,outcome,"activity change, negative = inhibition",Potency
CCOC(=O)C1=C(CSc2nc3ccccc3s2)NC(=O)NC1c1ccc(OC)cc1 (stereo not given),inactive [at 12.7 µM],,
CCCCCn1c(C)c2c(OCC)cccc(=O)c2c1C,,inactive: 6.52%,
COCCCn1c(=N)c(C(=O)NCc2cccnc2)cc2c(=O)n3cccc(C)c3nc21,inactive [at 12.7 µM],,
CCOC(=O)C1=C(C)OC(N)=C(C#N)C1c1ccc(OC)c(CSc2ccccn2)c1 (stereo not given),,inactive: -17.7%,
COn1c(-c2ccc(Cl)cc2Cl)nc2ncccc21,,,active: 84.9 µM
CN(Cc1ccnc2ccccc12)C(=O)C1CCC(=O)N(Cc2ccccc2F)C1 (stereo not given),,,"inconclusive: 67.5 µM [inhibitor, partial curve, poor fit]"
Cc1nnc(SCCn2c(N3CCC(Cc4ccccc4)CC3)nc3c2c(=O)[nH]c(=O)n3C)s1,,,"inconclusive: 10.7 µM [inhibitor, full curve]"
COc1cc(/C=C/C(=O)OCC(=O)Nc2oc(C)c3c(C)n[nH]c(=O)c23)ccc1OC(F)F,,inactive: 5% [at 114 µM],
O=c1cc(CSc2ccccc2)nc(-c2ccncc2)[nH]1,,inactive: -10.6% [at 114 µM],
O=C1CC(=O)N(CCc2ccccc2)C(=O)N1CCc1ccccc1,inactive,,
COc1ccccc1N(CC(=O)Nc1ccc(Br)cc1F)S(=O)(=O)c1cccs1,,,"inconclusive: 84.9 µM [inhibitor, single point]"
C/C=C/C(=O)Nc1cccc(C2=NOC3(C2)C[C@@H](C(N)=O)N(C(=O)/C(C)=C/C)C3)c1 (stereo not given in full),,inactive: 3.31% [at 114 µM],
CC1CN(C(=O)CCC(=O)NCc2ccc(F)cc2)c2ccccc2S1 (stereo not given),,,"inconclusive: 5.36 µM [inhibitor, partial curve, poor fit]"
C=C(C)Cn1c(C)cc(C)c(S(=O)(=O)c2ccc(C)cc2)c1=O,,,"inconclusive: 0.478 µM [inhibitor, full curve, poor fit]"
COc1ccc(C(C#N)N2CCC(c3ccccc3)=N2)cc1OC (stereo not given),,,"inconclusive: 42.6 µM [inhibitor, partial curve]"
CC(C)C[C@H](NC(=O)[C@H](Cc1ccccc1)n1c(=O)[nH]c2ccccc2c1=O)C(=O)N1CCC(C(=O)O)CC1,inactive,,
COCOCCn1cc(CN2CCS(=O)(=O)N(Cc3ccc(-c4ccc(C)cc4)cc3)C(CC(C)C)C2=O)nn1 (stereo not given),,inactive: -1.08%,
CCCN(C(=O)COC(=O)COc1c(C)cccc1C)c1c(N)n(Cc2ccccc2)c(=O)[nH]c1=O,,,"inconclusive: 95.3 µM [inhibitor, single point]"
CCOC(=O)c1ccccc1NC(=O)COC(=O)C(Cc1c[nH]c2ccccc12)NC(C)=O (stereo not given),,,"inconclusive: 84.9 µM [inhibitor, single point]"
COC(=O)c1nc2nc(C)cc(=O)n2[nH]1,,,"inconclusive: 0.953 µM [inhibitor, partial curve, poor fit]"

SMILES,outcome,"activity change, negative = inhibition",Potency
Nc1ccn(C2C=CC(CO)O2)c(=O)n1 (stereo not given),,inactive: -13.2% [at 114 µM],
Cc1ccc(C2SCC(=O)N2Cc2ccccc2)cc1 (stereo not given),,,"inconclusive: 67.5 µM [inhibitor, partial curve, poor fit]"
O=C(O)Cc1ccc(C(=O)c2ccc(Cl)cc2Cl)s1,,,"inconclusive: 15.1 µM [inhibitor, full curve]"
CCCCCN(C(=O)CCC(=O)OCC(=O)N1CCC(C)CC1)c1c(N)n(CCCC)c(=O)[nH]c1=O,,,"inconclusive: 6.75 µM [inhibitor, full curve, poor fit]"
Cc1c(C(=O)NCc2ccc(F)cc2)sc(=O)n1Cc1ccccc1F,,,active: 67.5 µM
O=C1C(=Cc2ccccc2Cl)CCc2ccccc21,,,"inconclusive: 84.9 µM [inhibitor, single point]"
Cc1cc(Nc2ccccc2)c2c([N+](=O)[O-])ccc(C)c2n1,,,"inconclusive: 23.9 µM [inhibitor, partial curve]"
COc1ccc(-c2nc(C)ncc2-c2ccc(Cl)cc2)c(O)c1,,,"inconclusive: 30.1 µM [inhibitor, full curve]"
CCc1nc2ccccc2c(C(=O)NCc2ccccc2)c1C,,,"inconclusive: 84.9 µM [inhibitor, single point]"
COc1cc(OC)c2c(-c3ccccc3)cc(=O)oc2c1C(CC(=O)N1CCOCC1)c1ccc2c(c1)OCO2 (stereo not given),,,"inconclusive: 4.26 µM [inhibitor, partial curve, poor fit]"
Cc1cc(C)cc(NC(=O)c2sc3nc(-c4ccccc4)cn3c2C)c1,,,"inconclusive: 6.01 µM [inhibitor, single point]"
O=C(N/N=C/c1ccccc1O)c1ccc2c(c1)OCO2,,,"inconclusive: 84.9 µM [inhibitor, single point]"
O=[N+]([O-])c1cc(/C=N/O)ccc1Oc1ccccc1Cl,,,"inconclusive: 23.9 µM [inhibitor, full curve]"
COc1ccc(C2CN=NC23CCc2ccccc2C3=O)cc1 (stereo not given),,,"inconclusive: 30.1 µM [inhibitor, full curve]"
COc1ccc(OC)c(/C=C2\SC(=S)N(NS(=O)(=O)c3ccccc3)C2=O)c1,,,active: 33.8 µM
Cc1ccc([N+](=O)[O-])cc1NC(=O)c1ccc(-c2ccccc2)cc1,,,"inconclusive: 95.3 µM [inhibitor, single point]"
CCOC(=O)CC1C(=O)NCCN1C(=O)c1cccc(C(F)(F)F)c1 (stereo not given),,,"inconclusive: 84.9 µM [inhibitor, single point]"
O=C(NCCN1CCCC1)C(c1ccccc1)c1ccccc1,,inactive: -8.31% [at 114 µM],
CCc1nnc(NC(=O)c2ccc(-c3cccc(C(F)(F)F)c3)o2)s1,,inactive: -8.24%,
O=C(Cc1ccccc1Cl)Nc1ccc(S(=O)(=O)N2CCOCC2)cc1,,,"inconclusive: 95.3 µM [inhibitor, single point]"

# Part of the list above in order of molar mass, rising.
SMILES,outcome,"activity change, negative = inhibition",Potency
O=[N+]([O-])c1cc(/C=N/O)ccc1Oc1ccccc1Cl,,,"inconclusive: 23.9 µM [inhibitor, full curve]"
COc1ccc(C2CN=NC23CCc2ccccc2C3=O)cc1 (stereo not given),,,"inconclusive: 30.1 µM [inhibitor, full curve]"
CCOC(=O)CC1C(=O)NCCN1C(=O)c1cccc(C(F)(F)F)c1 (stereo not given),,,"inconclusive: 84.9 µM [inhibitor, single point]"

# — PubChem BioAssay (NCATS)
